Measured values as given in publication PMC5741900.
No constants are given. Whether binding was seen depends on the method and setting. Binding seen in cells or lysates may run through a third protein.

The chains behind the UniProt entries cited, without tags or fusion partners. Where a name states a change or a piece, a line headed by the entry shows the natural chain unless it says otherwise.
UniProt Q9UER7: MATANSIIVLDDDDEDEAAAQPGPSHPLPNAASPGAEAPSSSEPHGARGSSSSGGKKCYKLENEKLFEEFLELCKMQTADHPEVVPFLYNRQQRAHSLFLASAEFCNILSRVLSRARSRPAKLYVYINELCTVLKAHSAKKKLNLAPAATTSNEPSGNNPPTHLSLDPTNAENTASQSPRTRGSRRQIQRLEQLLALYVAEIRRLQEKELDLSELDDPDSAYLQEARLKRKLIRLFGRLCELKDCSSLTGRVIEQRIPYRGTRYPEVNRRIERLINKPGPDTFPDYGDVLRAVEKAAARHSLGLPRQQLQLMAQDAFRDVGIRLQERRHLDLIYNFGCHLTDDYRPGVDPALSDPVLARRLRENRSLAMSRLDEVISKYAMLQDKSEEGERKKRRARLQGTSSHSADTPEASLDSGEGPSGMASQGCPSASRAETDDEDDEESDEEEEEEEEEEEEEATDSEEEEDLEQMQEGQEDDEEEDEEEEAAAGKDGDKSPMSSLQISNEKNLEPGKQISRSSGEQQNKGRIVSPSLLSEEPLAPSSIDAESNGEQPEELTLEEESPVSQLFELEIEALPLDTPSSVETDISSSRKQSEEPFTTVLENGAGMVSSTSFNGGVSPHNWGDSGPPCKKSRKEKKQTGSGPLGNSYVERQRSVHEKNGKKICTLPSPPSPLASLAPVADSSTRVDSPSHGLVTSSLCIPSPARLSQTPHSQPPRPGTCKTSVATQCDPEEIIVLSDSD

Target: FLAG-HA-DaxxΔSIM (UniProt Q9UER7)
Assay: co-IP; FLAG magnetic beads on the chromatin fraction (400 mM NaCl extract) of HEp2 cells stably expressing FLAG-HA-Daxx or FLAG-HA-DaxxΔSIM; washed six times with high salt buffer, eluted with FLAG peptide; blot with CREST and CENP-B antibodies

binding: no binding
B1: CENP-B (centromere protein B), endogenous (protein, UniProt P07199 1-599)
chain: MGPKRRQLTFREKSRIIQEVEENPDLRKGEIARRFNIPPSTLSTILKNKRAILASERKYGVASTCRKTNKLSPYDKLEGLLIAWFQQIRAAGLPVKGIILKEKALRIAEELGMDDFTASNGWLDRFRRRHGVVSCSGVARARARNAAPRTPAAPASPAAVPSEGSGGSTTGWRAREEQPPSVAEGYASQDVFSATETSLWYDFLPDQAAGLCGGDGRPRQATQRLSVLLCANADGSEKLPPLVAGKSAKPRAGQAGLPCDYTANSKGGVTTQALAKYLKALDTRMAAESRRVLLLAGRLAAQSLDTSGLRHVQLAFFPPGTVHPLERGVVQQVKGHYRQAMLLKAMAALEGQDPSGLQLGLTEALHFVAAAWQAVEPSDIAACFREAGFGGGPNATITTSLKSEGEEEEEEEEEEEEEEGEGEEEEEEGEEEEEEGGEGEELGEEEEVEEEGDVDSDEEEEEDEESSSEGLEAEDWAQGVVEAGGSFGAYGAQEEAQCPTLHFLEGGEDSDSDSEEEDDEEEDDEDEDDDDDEEDGDEVPVPSFGEAMAYFAMVKRYLTSFPIDDRVQSHILHLEHDLVHVTRKNHARQAGVRGLGHQS
